{
  "sequences": {"note": "Amino acid sequences for entries named in this document (tags omitted).", "UniProt P30561": "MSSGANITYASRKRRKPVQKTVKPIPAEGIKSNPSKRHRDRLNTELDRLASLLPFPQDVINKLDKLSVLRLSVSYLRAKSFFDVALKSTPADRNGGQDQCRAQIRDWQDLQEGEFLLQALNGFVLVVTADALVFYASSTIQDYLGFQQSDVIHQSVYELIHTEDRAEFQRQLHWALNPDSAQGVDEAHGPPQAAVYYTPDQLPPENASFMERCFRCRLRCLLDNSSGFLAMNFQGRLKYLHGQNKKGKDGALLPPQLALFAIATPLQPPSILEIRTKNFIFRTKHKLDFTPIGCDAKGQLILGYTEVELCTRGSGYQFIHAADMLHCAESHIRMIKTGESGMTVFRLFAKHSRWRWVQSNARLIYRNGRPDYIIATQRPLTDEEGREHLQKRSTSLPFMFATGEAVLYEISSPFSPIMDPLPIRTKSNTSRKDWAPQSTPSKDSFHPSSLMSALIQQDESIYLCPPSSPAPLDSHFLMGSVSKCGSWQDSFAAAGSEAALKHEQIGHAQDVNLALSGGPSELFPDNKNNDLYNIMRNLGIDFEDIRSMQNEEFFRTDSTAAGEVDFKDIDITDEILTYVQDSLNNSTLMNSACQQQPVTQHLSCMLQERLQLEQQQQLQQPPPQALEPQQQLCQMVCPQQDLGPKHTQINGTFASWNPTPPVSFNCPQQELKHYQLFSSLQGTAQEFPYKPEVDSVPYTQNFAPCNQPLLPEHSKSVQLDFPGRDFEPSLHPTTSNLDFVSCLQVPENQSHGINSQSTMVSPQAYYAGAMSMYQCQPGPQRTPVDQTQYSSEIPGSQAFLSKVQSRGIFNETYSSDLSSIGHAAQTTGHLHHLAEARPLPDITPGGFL", "UniProt P53762": "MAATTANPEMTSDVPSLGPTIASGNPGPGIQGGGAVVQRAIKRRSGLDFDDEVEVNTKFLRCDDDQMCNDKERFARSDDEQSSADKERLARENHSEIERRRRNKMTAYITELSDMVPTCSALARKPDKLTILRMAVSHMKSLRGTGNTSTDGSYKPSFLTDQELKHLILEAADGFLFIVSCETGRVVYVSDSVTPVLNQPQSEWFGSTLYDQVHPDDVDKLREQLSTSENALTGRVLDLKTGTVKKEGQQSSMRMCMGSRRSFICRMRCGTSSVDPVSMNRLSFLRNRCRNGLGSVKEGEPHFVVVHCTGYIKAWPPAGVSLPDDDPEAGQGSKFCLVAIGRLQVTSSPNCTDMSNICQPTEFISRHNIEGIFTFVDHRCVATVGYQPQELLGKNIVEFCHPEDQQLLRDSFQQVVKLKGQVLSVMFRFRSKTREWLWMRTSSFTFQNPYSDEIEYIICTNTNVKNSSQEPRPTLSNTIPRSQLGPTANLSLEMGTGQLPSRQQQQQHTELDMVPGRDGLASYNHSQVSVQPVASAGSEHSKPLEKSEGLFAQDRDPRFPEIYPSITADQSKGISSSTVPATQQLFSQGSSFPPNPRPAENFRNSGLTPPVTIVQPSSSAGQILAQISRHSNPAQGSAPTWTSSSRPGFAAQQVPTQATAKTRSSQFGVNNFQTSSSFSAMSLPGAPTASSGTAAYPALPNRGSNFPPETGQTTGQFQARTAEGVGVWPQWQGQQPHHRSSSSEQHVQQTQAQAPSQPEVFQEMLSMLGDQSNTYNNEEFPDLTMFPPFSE"},
  "source": "paper PMC7177239",
  "about": "“Transitional States in Ligand-Dependent Transformation of the Aryl Hydrocarbon Receptor into Its DNA-Binding Form” (International Journal of Molecular Sciences, 2020)",
  "target": "wild type aryl hydrocarbon receptor (mouse) (mouse) (UniProt P30561)",
  "test": "co-IP; hsp90 precipitated with the 3G3 anti-hsp90 antibody from a 1:1 mixture of in vitro synthesized [35S]ARNT and unlabeled AhR, incubated with 20 nM TCDD and 20 mM sodium molybdate for 1.5 h at room temperature; molybdate also in the washing buffer; [35S]ARNT bands quantitated",
  "note": "Results are given in words; binding and its absence hold for the method and conditions named. In cells and extracts the contact can be indirect. Some entries that bind do so weakly or less than the wild type.",
  "data": [
    {"substance": "aryl hydrocarbon receptor nuclear translocator (from UniProt P53762 1-791)", "values": [
      {"measurement": "binding", "value": "binds"}
    ]}
  ]
}
